# Measured values as given in PubChem BioAssay AID743255 (National Center for Advancing Translational Sciences (NCATS), 2014).
# Protein sequences, listed by entry. Tags and fused reporters are not part of them. Lines headed by an entry give the natural chain unless they say otherwise; changes in a name come on top.
# UniProt O94782: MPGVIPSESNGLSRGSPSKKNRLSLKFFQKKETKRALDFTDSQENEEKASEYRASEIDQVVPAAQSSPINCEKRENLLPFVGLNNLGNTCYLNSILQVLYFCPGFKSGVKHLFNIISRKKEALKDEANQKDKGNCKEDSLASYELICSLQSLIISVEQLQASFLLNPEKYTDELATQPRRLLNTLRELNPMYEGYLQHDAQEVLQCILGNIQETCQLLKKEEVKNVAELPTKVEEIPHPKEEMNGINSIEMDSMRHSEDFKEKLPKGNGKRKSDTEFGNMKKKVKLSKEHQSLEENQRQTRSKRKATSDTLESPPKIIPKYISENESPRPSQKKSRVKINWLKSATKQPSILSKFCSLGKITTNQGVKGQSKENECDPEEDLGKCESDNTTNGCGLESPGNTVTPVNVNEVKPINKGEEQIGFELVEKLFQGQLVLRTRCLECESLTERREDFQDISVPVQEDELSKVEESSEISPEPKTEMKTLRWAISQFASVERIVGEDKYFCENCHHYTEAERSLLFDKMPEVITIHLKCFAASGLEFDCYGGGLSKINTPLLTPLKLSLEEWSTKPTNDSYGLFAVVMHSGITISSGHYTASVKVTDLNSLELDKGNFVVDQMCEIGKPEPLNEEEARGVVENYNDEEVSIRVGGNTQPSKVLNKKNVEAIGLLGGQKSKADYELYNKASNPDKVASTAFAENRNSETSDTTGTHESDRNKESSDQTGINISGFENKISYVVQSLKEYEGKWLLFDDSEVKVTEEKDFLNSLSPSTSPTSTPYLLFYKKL
# Where “and” joins values, the source holds several entries; their conditions need not be identical. Equal values may be shown once. Hit rate of the full screen: of about 390,000 compounds, about 910 (0.23%) were called active. The shares of active, inactive and inconclusive entries below differ from those in the screen. Calls follow the shape of the dose curve; as a rule, active = well fitted inhibition curve with a large enough effect; inconclusive = small, poorly fitted or top-dose-only effect; inactive = no such curve, though single readings can be large or run the other way. Potencies of inconclusive entries are doubtful fits and often do not repeat.
# Target: Ubiquitin carboxyl-terminal hydrolase 1 (Homo sapiens) (UniProt O94782)
# Test: Inhibitors of USP1/UAF1: Primary Screen; also: nearly all actives have a fitted effect of over 60% in size
# Conditions: recombinant USP1/UAF1, Ub-Rhodamine cleavage fluorescence; activity change, negative = inhibition: at 57.1 µM (top of the series)
# Outline: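 1 nM enzyme complex + cpd, 15 min RT; start with Ub-Rho 150nM final; kinetic fluorescence ex 480/em 540, 6 reads q60 s. Buffer 50mM HEPES pH 7.8, 0.5mM EDTA, 0.1 mg/ml BSA, 1mM TCEP, 0.01% Tween-20.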
# % is scaled to controls: 0 for no effect and ±100 for the full control effect; potency is read from the fitted curve at half-maximal effect.
Structure (SMILES),"activity change, negative = inhibition",Potency
O=C(c1ccc(Cl)cc1)C1CCCN(Cc2cnn(-c3ccccc3)c2)C1 (centres undefined),inactive: -12.1%,–
CN(C)C(CNC(=O)c1ccc(C(=O)c2ccccc2)cc1)c1ccccc1 (centres undefined),–,"inconclusive: 50.1 µM [inhibitor, single point]"
COc1cc(CNc2ccc(N3CCCC3)cc2)ccc1OCc1ccccc1F,–,"inconclusive: 44.7 µM [inhibitor, partial curve, poor fit]"
CCOc1ccc(CNC(=O)CSc2cc(=O)n(CC)c3ccccc23)cc1,–,"inconclusive: 89.1 µM [inhibitor, partial curve, poor fit]"
O=S(=O)(c1ccc(Br)cc1Cl)N1CCCN(c2ccc(C(F)(F)F)cn2)CC1,–,"inconclusive: 50.1 µM [inhibitor, partial curve]"
COc1ccc(CCNC(=O)CSc2nnc(-c3cccc(F)c3)o2)cc1OC,–,"inconclusive: 3.98 µM [inhibitor, partial curve]"
COc1ccc(N2Cc3cccc(C(=O)Nc4cc(C)cc(C)c4)c3C2=O)cc1,–,"inconclusive: 22.4 µM [inhibitor, partial curve, poor fit]"
COc1ccc(-c2csc(NC(=O)c3ccc(C(C)(C)C)cc3)c2C(=O)O)cc1,–,"inconclusive: 6.31 µM [inhibitor, single point]"
O=c1cc(-c2ccccc2Cl)oc2c(NS(=O)(=O)c3cc(Cl)cc(Cl)c3O)ccc(O)c12,–,active: 25.1 µM
COc1cccc(N2CCN(c3ncnc4c3nc3n4CCCCC3)CC2)c1,–,"inconclusive: 15.8 µM [inhibitor, partial curve]"
Cc1noc(NS(=O)(=O)c2ccc(NC(=O)c3cc(F)c(F)c(F)c3F)cc2)c1C,–,"inconclusive: 8.91 µM [inhibitor, partial curve]"
Brc1ccc(-c2nc3ccccn3c2Nc2ccc3c(c2)OCCO3)o1,–,"inconclusive: 1.58 µM [inhibitor, partial curve, poor fit]"
O=C(CNc1cc(S(=O)(=O)N2CCCC2)ccc1OCC(F)(F)F)Nc1ccc(SC(F)F)cc1,inactive: -22.9%,–
Cc1cc(C)c(CN2CCN(Cc3ccc(C)o3)C(CCO)C2)c(-n2cccn2)c1 (centres undefined),inactive: -26.3%,–
Cc1ccc(-n2c3nc(=O)[nH]c(=O)c-3cc3c(C)nn(-c4ccccc4)c32)cc1Cl,inactive: -8.25%,–
CCCN(CCC)CC(O)Cn1cc(/C=C/C(=O)c2ccc(C)cc2)c2ccccc21 (centres undefined),–,"inconclusive: 20 µM [inhibitor, partial curve, poor fit]"
Cc1cccc(NC(=S)NC(C)C(c2ccccc2)N2CCN(C)CC2)c1C (centres undefined),–,"inconclusive: 2.82 µM [inhibitor, partial curve]"
COc1ccc(O)c(C(c2c(C)[nH][nH]c2=O)c2c(C)[nH][nH]c2=O)c1,–,"inconclusive: 14.1 µM [inhibitor, partial curve]"
O=C(O)c1ccc(CSc2nnc(-c3ccncc3)n2-c2ccc(Br)cc2)cc1,–,"inconclusive: 5.01 µM [inhibitor, partial curve, poor fit]"
CCN(c1ccccc1)c1ccc2cc(S(=O)(=O)N3CCCC3)ccc2n1,inactive: -11.2%,–
O=C(O)c1ccc2nc(-c3cc4cccc(O)c4oc3=O)[nH]c2c1,–,"inconclusive: 56.2 µM [inhibitor, partial curve, poor fit]"
Cc1ccc(C)c(S(=O)(=O)c2nnn3c2nc(NC(C)C)c2sccc23)c1,–,"inconclusive: 126 µM [inhibitor, partial curve, poor fit]"

Structure (SMILES),"activity change, negative = inhibition",Potency
CCCCCCNC(=O)O[C@]12C[C@@H](C(=O)OC)[C@@H](C(=O)OC)C[C@@]1(O)CN(S(=O)(=O)c1ccc(C)cc1)C2,–,"inconclusive: 44.7 µM [inhibitor, partial curve, poor fit]"
COc1cc2c(cc1OC)CN(C(=O)CSc1ccccc1C)CC2,inactive: -12.7%,–
CCOC(=O)C1CCN(S(=O)(=O)c2cc(Cl)c(C)cc2OC)CC1,–,"inconclusive: 17.8 µM [inhibitor, partial curve]"
COc1ccc(Cl)cc1NC(=O)c1cn(C2CCCCC2)c(=O)c2c1c1ccccc1n2C,–,"inconclusive: 7.94 µM [inhibitor, partial curve, poor fit]"
CCOc1ccc(Nc2nc3cc(Cl)c(Cl)cc3nc2-n2nc(C)cc2C)cc1,–,"inconclusive: 22.4 µM [inhibitor, partial curve]"
O=C(COC(=O)C1CCN(S(=O)(=O)c2cc([N+](=O)[O-])ccc2Cl)CC1)Nc1ncc(Cl)cc1Cl,inactive: -22.5%,–
CCOc1cc(/C=C/C(=O)c2ccc(OC)c(CN3CCOCC3)c2)cc(Br)c1O,–,active: 35.5 µM
CCC(Oc1ccccc1F)C(=O)N1CCC(c2nc3ccccc3s2)CC1 (centres undefined),inactive: -10.6%,–
CCC(C)c1ccccc1N1CC(C(=O)Nc2cc(S(=O)(=O)N3CCOCC3)ccc2OC)CC1=O (centres undefined),–,"inconclusive: 44.7 µM [inhibitor, partial curve, poor fit]"
CC(C)Cn1cnc2c(SCCc3ccccc3)nc(N)nc21,–,"inconclusive: 22.4 µM [inhibitor, partial curve, poor fit]"
COc1ccc(-c2cn3cc([N+](=O)[O-])ccc3n2)cc1OC,inactive: -21%,–
C[C@H](CO)N1C[C@H](C)[C@@H](CN(C)S(=O)(=O)c2cccs2)Oc2ccc(NC(=O)Cc3ccccc3)cc2C1=O,–,"inconclusive: 0.251 µM [inhibitor, full curve, poor fit]"
CC(=O)c1ccc2noc(-c3ccc(F)cc3)c2c1,–,"inconclusive: 12.6 µM [inhibitor, partial curve]"
CN1CCCC(OC(=O)c2cc(F)c(F)c(F)c2F)C1 (centres undefined),–,"inconclusive: 0.562 µM [inhibitor, full curve, poor fit]"
O=C(Nc1cc(C(F)(F)F)ccc1-n1cncn1)c1ccc(Br)cc1,inactive: -9.67%,–
N=c1n(CC(=O)c2ccc([N+](=O)[O-])cc2)c2ccccc2n1Cc1ccccc1,inactive: 15.6%,–
CCn1c2ccccc2c2c3ncc4cccn4c3ccc21,–,"inconclusive: 39.8 µM [inhibitor, partial curve]"
O=[N+]([O-])c1ccc(SCCc2ccncc2)cc1,–,"inactive and inconclusive: 35.5 µM [inhibitor, partial curve]"
Cc1ccc(S(=O)(=O)N(Cc2nc(-c3cccc(C)c3)no2)C2CCCCC2)cc1,–,"inconclusive: 56.2 µM [inhibitor, single point]"
O=C(COCc1cc(-c2ccc3c(c2)OCO3)on1)N1CCN(c2cccc(Cl)c2)CC1,–,"inconclusive: 50.1 µM [inhibitor, partial curve, poor fit]"
O=C(NCN1CCN(c2ccccc2)CC1)c1cnccn1,–,"inconclusive: 6.31 µM [inhibitor, full curve, poor fit]"
Cc1c(C(=O)N2C[C@@H](C)O[C@@H](C)C2)oc2c(F)cccc12,inactive: -13.6%,–

# Part of the list above in order of molecular weight, rising.
Structure (SMILES),"activity change, negative = inhibition",Potency
COc1ccc(-c2cn3cc([N+](=O)[O-])ccc3n2)cc1OC,inactive: -21%,–
CC(C)Cn1cnc2c(SCCc3ccccc3)nc(N)nc21,–,"inconclusive: 22.4 µM [inhibitor, partial curve, poor fit]"
COc1ccc(Cl)cc1NC(=O)c1cn(C2CCCCC2)c(=O)c2c1c1ccccc1n2C,–,"inconclusive: 7.94 µM [inhibitor, partial curve, poor fit]"

# Further compounds follow:

Structure (SMILES),"activity change, negative = inhibition",Potency
Oc1ccccc1/C=N/Nc1cc(N2CCCC2)nc(N2CCCC2)n1,–,active: 25.1 µM
Cc1cccc(OCC(=O)NCCNC(=O)c2ccncc2)c1,–,"inconclusive: 28.2 µM [inhibitor, partial curve]"
CCCOC(=O)c1c(-c2ccc(OC)cc2)oc2ccc(-c3ccc(OC)nc3)cc12,inactive: 14.8%,–
CCCCNC(=O)C1(NC(=O)Nc2ccc(C)cc2)CCCCC1,inactive: -5.48%,–
CCc1nonc1NC(=O)c1oc2ccc(C)cc2c1C,–,"inconclusive: 7.08 µM [inhibitor, full curve, poor fit]"
CN1C=CC(=CC=C2C=CC(=O)C=C2)C=C1,–,"inconclusive: 0.251 µM [inhibitor, full curve, poor fit]"
Cc1ccc(NS(=O)(=O)c2cc3[nH]c(=O)c(=O)[nH]c3cc2C)cc1Cl,–,"inconclusive: 0.891 µM [inhibitor, full curve]"
Cc1ccnc(Nc2nc(-c3c(C)nc4sccn34)cs2)c1,–,"inconclusive: 39.8 µM [inhibitor, partial curve]"
COc1ccc(/C=C(\C#N)C(=O)Nc2cccnc2)cc1,–,"inconclusive: 35.5 µM [inhibitor, partial curve]"
COc1ccc(C(=S)NCS(=O)(=O)c2ccc(C)cc2)cc1,inactive: -3.1%,–
Cc1ccc(-c2cc(C(=O)N(Cc3ccc(C(C)(C)C)cc3)Cc3ccco3)no2)cc1,–,"inconclusive: 79.4 µM [inhibitor, partial curve, poor fit]"
CC1(c2ccccc2)NC(=O)N(CC(=O)Nc2ccc(C(N)=O)cc2)C1=O (centres undefined),–,"inconclusive: 56.2 µM [inhibitor, partial curve, poor fit]"
S=C(NCCc1ccccc1)N1CCN(C23CC4CC(CC(C4)C2)C3)CC1,inactive: -19.3%,–
Cc1cccc(C)c1NC(=O)CCCCCC1NC(=O)NC1C (centres undefined),–,"inconclusive: 5.62 µM [inhibitor, partial curve, poor fit]"
CCOc1ccccc1CNC(=O)Cn1cc2c(n1)-c1c(oc(C(=O)N3CCCC3)c1C)CC2,–,"inconclusive: 44.7 µM [inhibitor, single point]"
Cc1cccnc1NC(=O)NC(=O)c1ccc(C(C)(C)C)s1,inactive: -5.71%,–
Cc1ccc(C)c(NC(=O)C2CCCN(S(=O)(=O)c3cn(C)cn3)C2)c1 (centres undefined),–,"inconclusive: 0.708 µM [inhibitor, full curve, poor fit]"
COc1cccc(-c2nc(N3CCCCC3C)c3ccccc3n2)c1O (centres undefined),–,"inconclusive: 44.7 µM [inhibitor, partial curve, poor fit]"
Cc1nc(SC(C)C(=O)Nc2ccccc2Cl)cc(-c2ccccc2)n1 (centres undefined),inactive: 3.81%,–
COC(=O)Cc1ccc(NC(=S)NCCC(C)C)cc1,–,"inconclusive: 4.47 µM [inhibitor, single point]"
